The text below walks through data of article PMC6523098.

Chains of the proteins cited; added tags and fusions are not shown. Lines headed by an entry give the natural chain unless they say otherwise; changes in a name come on top. A line that says so, or that is headed by a name, gives the form on record, which may keep a tag or linker.
UniProt O22286: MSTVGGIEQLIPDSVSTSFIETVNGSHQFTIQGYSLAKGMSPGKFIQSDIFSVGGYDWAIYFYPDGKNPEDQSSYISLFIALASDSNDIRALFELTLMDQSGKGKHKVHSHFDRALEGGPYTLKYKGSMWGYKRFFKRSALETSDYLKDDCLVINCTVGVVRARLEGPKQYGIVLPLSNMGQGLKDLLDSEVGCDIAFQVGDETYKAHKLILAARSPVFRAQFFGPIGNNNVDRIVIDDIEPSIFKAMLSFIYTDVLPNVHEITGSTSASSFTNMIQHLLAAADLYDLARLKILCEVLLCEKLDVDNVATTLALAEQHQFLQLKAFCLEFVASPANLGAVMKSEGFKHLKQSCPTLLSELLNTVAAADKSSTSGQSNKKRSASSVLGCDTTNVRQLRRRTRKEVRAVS
UniProt Q8H1E4: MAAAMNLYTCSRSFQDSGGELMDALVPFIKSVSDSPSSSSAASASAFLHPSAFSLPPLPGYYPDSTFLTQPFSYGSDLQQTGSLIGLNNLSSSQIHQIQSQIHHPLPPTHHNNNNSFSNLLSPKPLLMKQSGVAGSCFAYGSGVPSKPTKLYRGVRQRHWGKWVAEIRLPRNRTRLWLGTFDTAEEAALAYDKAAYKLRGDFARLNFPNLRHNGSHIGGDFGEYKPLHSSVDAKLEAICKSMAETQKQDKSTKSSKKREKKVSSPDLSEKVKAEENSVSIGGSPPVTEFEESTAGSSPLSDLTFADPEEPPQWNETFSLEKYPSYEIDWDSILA
AtRAP2.4 with the SBC motif deleted (Q8H1E4, form named): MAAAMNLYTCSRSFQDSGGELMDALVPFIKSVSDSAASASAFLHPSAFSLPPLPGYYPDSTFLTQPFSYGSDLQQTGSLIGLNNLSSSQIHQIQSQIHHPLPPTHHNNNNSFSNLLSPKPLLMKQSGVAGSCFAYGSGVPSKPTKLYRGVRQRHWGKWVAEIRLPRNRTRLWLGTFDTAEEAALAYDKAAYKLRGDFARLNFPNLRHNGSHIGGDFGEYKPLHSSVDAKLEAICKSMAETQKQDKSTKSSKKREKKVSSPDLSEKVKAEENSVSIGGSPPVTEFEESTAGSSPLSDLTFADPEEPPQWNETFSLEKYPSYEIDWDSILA

Results are given in words; binding and its absence hold for the method and conditions named. Some results given as binding are weak or reduced against the parent protein; the word gives no strength.

The experiment has as its target His:AtBPM3 (Arabidopsis thaliana) (UniProt O22286). The experiment is described as follows: pull-down; recombinant GST:RAP2.4 proteins and His:AtBPM3, which of them was on beads is not stated for these panels; blots quantified, full length set to 100%; both purified.

Regarding “AtRAP2.4 with the SBC motif deleted (from UniProt Q8H1E4 1-334)”, the binding result was “binds”.

With “GST:AtRAP2.4 (from UniProt Q8H1E4 1-334)”, the binding result was “binds”.
